Source: US5624799

Protein sequences, listed by entry. Tags and fused reporters are not part of them. Residues count along the entry.
UniProt P09874, 2-1014: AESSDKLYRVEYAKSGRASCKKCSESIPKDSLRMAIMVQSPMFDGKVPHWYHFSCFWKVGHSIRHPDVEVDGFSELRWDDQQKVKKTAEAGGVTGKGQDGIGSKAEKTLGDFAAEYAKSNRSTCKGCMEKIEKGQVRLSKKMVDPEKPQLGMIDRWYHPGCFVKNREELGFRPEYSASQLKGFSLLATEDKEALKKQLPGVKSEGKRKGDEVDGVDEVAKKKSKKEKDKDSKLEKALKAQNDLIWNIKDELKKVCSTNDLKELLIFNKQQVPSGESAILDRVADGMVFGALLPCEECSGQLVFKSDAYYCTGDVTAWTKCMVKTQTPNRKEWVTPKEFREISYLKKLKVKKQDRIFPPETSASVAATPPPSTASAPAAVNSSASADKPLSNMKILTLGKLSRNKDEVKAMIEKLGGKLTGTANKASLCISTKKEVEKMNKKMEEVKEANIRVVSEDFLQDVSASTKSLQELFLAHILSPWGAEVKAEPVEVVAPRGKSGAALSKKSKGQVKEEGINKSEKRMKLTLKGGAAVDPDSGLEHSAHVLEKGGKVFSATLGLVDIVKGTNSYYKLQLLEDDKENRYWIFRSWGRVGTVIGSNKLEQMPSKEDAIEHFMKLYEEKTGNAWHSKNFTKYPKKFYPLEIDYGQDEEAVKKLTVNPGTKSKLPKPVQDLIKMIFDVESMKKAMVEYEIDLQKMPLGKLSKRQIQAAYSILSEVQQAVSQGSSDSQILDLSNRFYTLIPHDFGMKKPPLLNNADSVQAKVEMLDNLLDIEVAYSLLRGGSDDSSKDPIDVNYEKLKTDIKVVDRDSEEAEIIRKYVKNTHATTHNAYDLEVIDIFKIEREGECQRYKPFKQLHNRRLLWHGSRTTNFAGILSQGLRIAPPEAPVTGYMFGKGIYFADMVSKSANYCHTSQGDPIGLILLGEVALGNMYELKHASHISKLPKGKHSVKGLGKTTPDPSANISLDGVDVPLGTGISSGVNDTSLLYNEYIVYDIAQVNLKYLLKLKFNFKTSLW

Assays:
[1] = molecular target: p114-MBP (crude cell extract) (Homo sapiens) (UniProt P09874); assay: binding assay; settings: south-western blot; 20 mM Tris-HCl pH 7.4, 50 mM NaCl, 5 mM MgCl2, salmon sperm DNA and poly(dI-dC) competitors, RT; detected in malignant breast tumors; protein in an extract
p114-MBP (Homo sapiens) [2] = molecular target: p114-MBP (Homo sapiens) (UniProt P09874); assay: competition with a labelled probe; settings: purified native protein
p114-MBP (Homo sapiens) [3] = molecular target: p114-MBP (Homo sapiens) (UniProt P09874); assay: EMSA; settings: did not substantially bind mutant MAR probe; purified native protein; label: end-labeled at both ends by Klenow

“TCTTTAATTTCTAATATATTTAGAATTC / TTCTAAATATATTAGAAATTAAAGAGAA [wild type MAR probe (25)5, concatemer of 5 ATC repeats]”: binds [1]; binds (p114-MBP (Homo sapiens) [2]; 100 ng unlabelled wild type MAR competed away binding to labelled wild type MAR probe).

“TCTTTAATTTCTACTGCTTTAGAA (double strand) [mutant MAR probe (24)8, concatemer of 8 ATC-like repeats]”: no binding (p114-MBP (Homo sapiens) [3]); no binding (p114-MBP (Homo sapiens) [2]; same amount of unlabelled mutant MAR did not compete, label: end-labeled at both ends by Klenow).

For at least one entry, the source does not settle the construct or the ends of the probe. For some of these results: A negative result means that nothing was seen under these conditions. For some of these results: Where cells or extracts were used, other partners may take part.
